Laboratory results from PMC7862700.
The other results are listed elsewhere or left out. Construct or isoform of the protein are uncertain.

target: T1, ELF2 (UniProt Q15723); assay: DAPPL (digital affinity profiling via proximity ligation, sequencing); details: 10 mM Tris-HCl pH 7.5, 50 mM NaCl, 1 mM DTT, 4% glycerol, room temperature, 30 min; GST-TFs on glutathione beads, 16-mer random dsDNA library, 0.1% …; high values mean tight binding; double strand, one strand shown; scale: fold enrichment (6-mer frequency, TF over GST control)
T1 sequence: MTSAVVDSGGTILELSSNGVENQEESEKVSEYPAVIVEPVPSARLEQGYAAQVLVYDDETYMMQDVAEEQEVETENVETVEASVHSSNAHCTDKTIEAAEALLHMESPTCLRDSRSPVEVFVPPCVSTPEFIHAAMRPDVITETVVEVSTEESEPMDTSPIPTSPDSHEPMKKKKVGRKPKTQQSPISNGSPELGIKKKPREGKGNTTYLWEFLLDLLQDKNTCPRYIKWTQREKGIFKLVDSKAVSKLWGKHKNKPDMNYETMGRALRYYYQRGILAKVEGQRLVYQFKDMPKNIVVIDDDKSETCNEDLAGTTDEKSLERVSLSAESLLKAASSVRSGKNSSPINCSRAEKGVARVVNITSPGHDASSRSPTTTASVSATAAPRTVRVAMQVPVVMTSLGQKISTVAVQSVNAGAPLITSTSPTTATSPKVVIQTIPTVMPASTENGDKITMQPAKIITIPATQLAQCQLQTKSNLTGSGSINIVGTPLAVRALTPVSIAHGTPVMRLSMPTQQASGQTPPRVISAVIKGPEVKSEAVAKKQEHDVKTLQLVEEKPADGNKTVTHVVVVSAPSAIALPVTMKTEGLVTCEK

| Sequence | binding signal |
| --- | --- |
| TTGAAT | 1.04 |
| TAAAAT | 1.19 |
| AACATG | 1.13 |
| TCCCTT | 1.58 |
| TGGTCT | 1.43 |
| GACCTC | 1.3 |
| GAACAT | 1.04 |
| GGTATT | 1.28 |
| CGATAA | 1.06 |
| ATCCAA | 1.14 |
| TATCTA | 1.18 |
| CTAATA | 1.13 |
| AACATA | 1.23 |
| TTATGT | 1.24 |
| GCTCCA | 1.19 |
| GATTCC | 1.29 |
| GTAACT | 1.23 |
| ACAATC | 1.11 |
| TTATAG | 1.19 |
| AATTGT | 1.33 |

| Sequence | binding signal |
| --- | --- |
| ACCTAA | 1.1 |
| CCTATT | 1.57 |
| GCTCGC | 1.35 |
| TCTCTA | 1.23 |
| ATGGAA | 1.12 |
| GCTTAT | 1.22 |
| CTTGAT | 1.33 |
| CTAAGT | 1.17 |
| TACCAA | 1.1 |
| AGGAAA | 1.84 |
| TTTATT | 1.28 |
| TCTCGG | 1.33 |
| CTCCCG | 1.6 |
| TATTTC | 2.69 |
| CAAAAA | 1.11 |
| ACATAT | 1.26 |
| TTTGCT | 1.21 |
| TTAAGT | 1.19 |
| CCATAT | 1.28 |

Exported with tabs: part of the list above
Sequence	binding signal
CGATAA	1.06
ATCCAA	1.14
TATCTA	1.18
CTAATA	1.13
AACATA	1.23
TTATGT	1.24
GCTCCA	1.19
GATTCC	1.29
GTAACT	1.23
ACAATC	1.11
